Test results reported in PubChem BioAssay AID2685 (National Center for Advancing Translational Sciences (NCATS), 2010).
The list shows a part of the results. The main result of the screen is listed elsewhere. These columns were measured beside it and carry no call. The list favours compounds with an active or inconclusive main result. The note in brackets gives the kind of curve behind each potency; many fits are weak.

Assay: qHTS Assay for Lipid Storage Modulators in Drosophila S3 Cells;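 for cell number change: cells counted by Cell Tracker Red CMTPX staining in the red channel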
Conditions: BODIPY lipid droplet fluorescence, 18-24 h; for cell number change: measured here: cell count max response, cells fed with added oleic acid
How it was run: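 Laser-scanning cytometry quantifies lipid droplet accumulation (500–530 nm total intensity; droplet/cell object ratio) in oleic acid-fed (400 uM added) Drosophila S3 cells treated with a concentration series. 20 uM Triacsin C defined 100% inhibition.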

[1] = measured here: lipid fluorescence (Fed channel) AC50, cells fed with added oleic acid
[2] = measured here: cell number channel AC50, cells fed with added oleic acid

Row | SMILES | cell number change [%] | AC50 [1] | AC50 [2]
1 | Nc1cnn(-c2ccccc2)c(=O)c1Cl | -10.6 | 0.13 µM [falling, full curve, poor fit] | 
2 | CC(=O)N1CC(=O)Nc2ccc(Cl)cc2C1c1ccc(F)cc1 (stereo not drawn) | 15.1 | 0.0517 µM [falling, full curve, poor fit] | 
3 | OCCNCCc1c[nH]c2ccc(OCc3ccccc3)cc12 | -19.4 | 2.31 µM [rising, partial curve] | 
4 | CC(C)C(=O)Nc1ccc(S(=O)(=O)N2CC3CC(C2)c2cccc(=O)n2C3)cc1 (stereo not drawn) | 24.5 | 16.4 µM [falling, single point] | 
5 | Oc1ccc(Br)cc1CN1CCN(c2ccccc2)CC1 | 0.463 | 0.651 µM [falling, full curve, poor fit] | 
6 | COc1c(C=C2C(=O)NC(=O)NC2=O)c(CCN(C)C(=O)c2ccccc2)cc2c1OCO2 | -4.94 | 6.51 µM [falling, full curve, poor fit] | 
7 | CC(C)CNC(=O)c1c(N)n(Cc2ccco2)c2nc3ccccc3nc12 | -76 |  | 29.1 µM [falling, single point]
8 | NC12CN3CN(CN(C3)C1)C2 (tested in a mixture with another compound) | 0.816 | 23.1 µM [falling, partial curve] | 
9 | CN1C(=O)C(=Cc2ccc(N3CCOCC3)o2)C(=O)N(C)C1=O | -7.23 |  | 
10 | CNCC1(c2ccccc2)CCCC1 | 32.6 | 6.51 µM [rising, single point] | 1.46 µM [rising, partial curve, poor fit]
11 | COC(=O)c1c(C)n(Cc2ccccc2)c2ccc(O)cc12 | 6.56 | 0.231 µM [rising, full curve, poor fit] | 
12 | O=[N+]([O-])c1cccc(CN2CCN(Cc3ccc(Br)cc3)CC2)c1 | 29.3 |  | 0.116 µM [falling, partial curve, poor fit]
13 | c1ccc2c(CCNCc3ccc4c(c3)OCO4)c[nH]c2c1 | -21.7 | 29.1 µM [falling, single point] | 
14 | COc1cc2occc2c2oc(=O)ccc12 |  | 1.46 µM [rising, full curve] | 
15 | O=C(CCNC(=O)N1C[C@H]2C[C@@H](C1)c1cccc(=O)n1C2)Nc1cccc(Cl)c1 | 14.8 |  | 0.731 µM [rising, full curve, poor fit]
16 | COc1ccccc1CN1CCCCC1c1cccnc1 (stereo not drawn) |  | 3.66 µM [rising, full curve] | 1.64 µM [rising, partial curve, poor fit]
17 | CCCCc1nc(N2CCNCC2)c(C#N)c2c1CSC(C)(C)C2 |  | 0.58 µM [rising, single point] | 
18 | COC(=O)CN1C(=O)C2(C(C(=O)OC)=C(N)Oc3ccccc32)C2=C1CC(C)(C)CC2=O (stereo not drawn) |  | 6.51 µM [falling, single point] | 
19 | O=C(c1ccc(N2CCCCCC2)c([N+](=O)[O-])c1)N1CCC2(CC1)OCCO2 | 13 | 0.731 µM [falling, single point] | 
20 | CN1CCN(c2ccc(C(N)=O)cc2N)CC1 | 4.23 | 0.092 µM [falling, full curve, poor fit] | 

Row | SMILES | cell number change [%] | AC50 [1] | AC50 [2]
21 | CN1CCN(Cc2nc3ccccc3n2C)CC1 | -2.78 | 0.00517 µM [falling, full curve, poor fit] | 
22 | CN1C(=O)N(C)C(=O)C2(Cc3cc(NC(=O)c4ccccc4Cl)ccc3N3CCCC32)C1=O (stereo not drawn) | 2.65 | 29.1 µM [rising, partial curve, poor fit] | 2.06 µM [rising, partial curve]
23 | O=c1oc2ccccc2c(O)c1C(c1ccc([N+](=O)[O-])cc1)c1c(O)c2ccccc2oc1=O | -13.3 | 4.11 µM [falling, single point] | 1.84 µM [falling, single point]
24 | O=c1cc(C(F)(F)F)c2cc3c4c(c2o1)CCCN4CCC3 | -62.3 | 20.6 µM [falling, single point] | 16.4 µM [falling, single point]
25 | CCCOc1ccc(C(=O)NC(=S)N2C[C@H]3C[C@H](C2)c2cccc(=O)n2C3)cc1 | 34.6 | 0.231 µM [rising, full curve, poor fit] | 36.6 µM [rising, partial curve, poor fit]
26 | Cc1ccc(/C=C2\C(=O)NC(=O)N(CC3CCCO3)C2=O)s1 (stereo not drawn) | -11 |  | 
27 | C(#CCN1CCOCC1)COCc1ccccc1 | 39.1 |  | 3.26 µM [rising, full curve, poor fit]
28 | O=C1c2ccccc2C(=O)N1Cc1nc2ccccc2c(=O)n1-c1cccnc1 |  | 0.731 µM [rising, single point] | 0.82 µM [rising, full curve]
29 | C/C=C(\C)C(=O)N[C@@H](c1ccccc1)[C@@H](O)C(=O)O[C@H]1C[C@@]2(O)[C@@H](OC(=O)c3ccccc3)C3[C@](C)(C(=O)[C@H](O)C(=C1C)C2(C)C)[C@@H](O)C[C@H]1OC[C@@]31OC(C)=O (stereo partly drawn) | 1.45 | 6.51 µM [falling, single point] | 
30 | Cc1cc(OC(=O)c2ccco2)c2c3c(c(=O)oc2c1)CCC3 | 9.67 |  | 
31 | CSC1=NP(=S)(SC)N2CCCC2=C1C#N (stereo not drawn) | 1.35 | 0.231 µM [rising, full curve, poor fit] | 
32 | Fc1ccc(CNCCc2c[nH]c3ccccc23)cc1 | 1.1 | 29.1 µM [rising, single point] | 
33 | CCOC(=O)[C@@]1(C#N)C(c2ccc(Cl)c(Cl)c2)[C@H](C(N)=O)N2C=C(C(C)=O)C=C[C@H]21 (stereo partly drawn) | -28 | 0.0058 µM [falling, full curve, poor fit] | 
34 | CCN(CC)c1ccc(N=Cc2c(O)[nH]c(=O)[nH]c2=O)cc1 | -28.3 | 0.13 µM [falling, full curve, poor fit] | 
35 | CC(C)(Cl)[N+](=O)[O-] | -7.12 | 1.64 µM [rising, partial curve, poor fit] | 
36 | O=P(N1CCCCC1)(N1CCCCC1)C(Cl)(Cl)Cl | -22.9 | 0.146 µM [falling, full curve, poor fit] | 0.731 µM [falling, full curve, poor fit]
37 | C=CCN1C(=O)/C(=C/c2cccs2)C(=O)NC1=S | -48.4 | 16.4 µM [falling, partial curve] | 18.4 µM [falling, single point]
38 | O=C(/C=C/c1ccc2c(c1)OCO2)c1c(O)n(CCc2ccccc2)c(=O)[nH]c1=O | 24.5 | 5.8 µM [rising, partial curve] | 
39 | N=c1c[n+](CC23CC4CC(CC(C4)C2)C3)[n-]o1 | -6.53 | 5.17 µM [falling, full curve] | 
40 | CCOc1ccc(N2C(=O)/C(=C\c3cccs3)C(=O)NC2=S)cc1 | -29.2 |  | 

Row | SMILES | cell number change [%] | AC50 [1] | AC50 [2]
41 | COc1ccc(C(=O)C2CCCN(C3CSCCSC3)C2)c(C)c1 (stereo not drawn) | -9.54 |  | 
42 | CCn1c(O)c(/C=N/N2CCOCC2)c(=O)n(CC)c1=S | -1.9 |  | 6.51 µM [rising, single point]
43 | COC(=O)C1=C(c2ccc(F)cc2F)C[C@@H]2CC[C@H]1N2C(=O)NC(C)C | -3.97 | 29.1 µM [rising, single point] | 
44 | Fc1ccc(CCNCc2ccccc2Cl)cc1 | 37.7 |  | 11.6 µM [rising, single point]
45 | C#C[C@]1(O)CCC2C3CCC4=C/C(=N/OCC(=O)NC(C)C(=O)NC(CCSC)C(=O)O)CC[C@]4(C)C3CC[C@@]21C (stereo partly drawn) | 14 | 0.259 µM [rising, full curve] | 
46 | CC1CCCC(C)N1/N=C/c1c[nH]c2ccc(Br)cc12 (stereo not drawn) | -61.9 | 20.6 µM [falling, single point] | 16.4 µM [falling, single point]
47 | CON(C)C(=O)Nc1ccc(Cl)cc1 | -177 | 0.103 µM [falling, full curve, poor fit] | 18.4 µM [falling, partial curve]
48 | O=C(CCl)NCC1CCCO1 (stereo not drawn) | 70.1 |  | 
49 | CCn1c(O)c(C=Nc2cc(Cl)ccc2Cl)c(=O)n(CC)c1=O | 21.1 | 10.3 µM [rising, partial curve, poor fit] | 
50 | CSCCC(N=Cc1c(O)n(-c2ccc(Cl)cc2)c(=O)[nH]c1=O)C(=O)OC(C)(C)C (stereo not drawn) |  | 6.51 µM [falling, single point] | 
51 | Fc1ccc(C[n+]2c(-c3ccccc3)cc(-c3ccccc3)cc2-c2ccccc2)cc1 |  | 2.06 µM [falling, partial curve] | 6.51 µM [falling, single point]
52 | N/C(=N\N=C/c1ccc(-c2ccc(O)c(C(=O)O)c2)o1)N[N+](=O)[O-] | -15.8 |  | 
53 | Cc1cccc2c1N(N=O)CCC2 | 7.11 | 29.1 µM [rising, single point] | 
54 | CN(C)CP(=O)(O)CN(C)C=O | -1.88 | 32.6 µM [falling, partial curve] | 
55 | Cc1cccc(OP(N)(=O)Oc2cccc(C)c2)c1 | 23.9 | 0.092 µM [falling, full curve, poor fit] | 
56 | Cc1c(C(c2ccc(F)cc2)c2c(O)c3ccccc3oc2=O)c(=O)n(-c2ccccc2)n1C (stereo not drawn) | 12.2 | 32.6 µM [rising, single point] | 
57 | COc1ccc(CCC(C)NCCc2ccccc2)cc1 (stereo not drawn) | -56.3 |  | 23.1 µM [falling, single point]
58 | CCCOc1ccc(N2C(=O)CC(N3CC=C(c4ccccc4)CC3)C2=O)cc1 (stereo not drawn) | -1.83 |  | 

Entries from the list above with a thiophene ring, fused or not:
Row | SMILES | cell number change [%] | AC50 [1] | AC50 [2]
26 | Cc1ccc(/C=C2\C(=O)NC(=O)N(CC3CCCO3)C2=O)s1 (stereo not drawn) | -11 |  | 
37 | C=CCN1C(=O)/C(=C/c2cccs2)C(=O)NC1=S | -48.4 | 16.4 µM [falling, partial curve] | 18.4 µM [falling, single point]
40 | CCOc1ccc(N2C(=O)/C(=C\c3cccs3)C(=O)NC2=S)cc1 | -29.2 |  | 
